From patent US20040029860A1, “Anti-proliferative drugs” (priority 2000, published 2004)

What follows are compounds tested on different cell-lines (assay: mean IC50 over cell lines and therapeutic index). Conditions: safe daily dose (mg) divided by mean IC50 (μM).
OCCN1CCN(CCCN2c3ccccc3Sc3ccc(Cl)cc32)CC1 [Perphenazine] was tested, and the “Therapeutic index Mean safe dose/IC50” value was 40 mg/20.0 = 2.0. For CN(C)CCCN1c2ccccc2Sc2ccc(Cl)cc21 [Chlorpromazine], the “Therapeutic index Mean safe dose/IC50” value was 600 mg/45.7 = 13.1. For CN1CCN(CCCN2c3ccccc3Sc3ccc(C(F)(F)F)cc32)CC1 [Trifluoperazine], the “Therapeutic index Mean safe dose/IC50” value was 40 mg/16.7 = 2.39. For OCCN1CCN(CC/C=C2/c3ccccc3Sc3ccc(C(F)(F)F)cc32)CC1 [Flupentixiol], the “Therapeutic index Mean safe dose/IC50” value was 40 mg/18.25 = 2.19.
